Measured values reported in US20180362485A1, “N-HYDROXYFORMAMIDE COMPOUNDS AND COMPOSITIONS COMPRISING THEM FOR USE AS BMP l, TLL1 AND/OR TLL2 INHIBITORS” (GlaxoSmithKline Intellectual Property (No. 2) Limited, priority 2015, published 2018).
Counter-ions that a name gives are not always drawn. Some of these results come from one statement about several compounds together.

Assay: Human plasma stability assay
Conditions: 37° C., within 24 hours

SMILES | conversion to a BMP1, TLL1 and/or TLL2 inhibitor in human plasma
CCCCC[C@@H](C(=O)NCNC(=O)c1ccc(-c2ccc(C(=O)N[C@@H](CC(=O)O)C(=O)O)c(OCC)c2)o1)[C@@H](CC)N(C=O)OC(=O)OC(C)(C)C [Example 86, (S)-2-(2-ethoxy-4-(5-(((4R,5R)-5-ethyl-6-formyl-10,10-dimethyl-3,8-dioxo-4-pentyl-7,9-dioxa-2,6-diazaundecyl)carbamoyl)furan-2-yl)benzamido) succinic acid] | convert to a BMP1, TLL1 and/or TLL2 inhibitor within 24 hours
CCCCC[C@@H](C(=O)NCNC(=O)c1ccc(-c2ccc(C(=O)N[C@@H](CC(=O)O)C(=O)O)c(OCC)c2)o1)[C@@H](CC)N(C=O)OC(=O)c1ccc(NC)cc1 [Example 207, (S)-2-(2-ethoxy-4-(5-((((R)-2-((R)-1-(N-((4-(methylamino)benzoyl)oxy) formamido)propyl)heptanamido)methyl)carbamoyl)furan-2-yl)benzamido) succinic acid] | convert to a BMP1, TLL1 and/or TLL2 inhibitor within 24 hours
CCCCC[C@@H](C(=O)NCNC(=O)c1ccc(-c2ccc(C(=O)N[C@@H](CC(=O)O)C(=O)O)c(OCC)c2)o1)[C@@H](CC)N(C=O)OC(=O)c1cccc(N(C)C)c1 [Example 601, (S)-2-(4-(5-((((R)-2-((R)-1-(N-((3-(dimethylamino)benzoyl)oxy) formamido)propyl)heptanamido)methyl)carbamoyl)furan-2-yl)-2-ethoxybenzamido) succinic acid] | convert to a BMP1, TLL1 and/or TLL2 inhibitor within 24 hours
CCCCC[C@@H](C(=O)NCNC(=O)c1ccc(-c2ccc(C(=O)N[C@@H](CC(=O)O)C(=O)O)c(OCC)c2)o1)[C@@H](CC)N(C=O)OC(=O)c1c(C)cccc1F [Example 49, (S)-2-(2-ethoxy-4-(5-((((R)-2-((R)-1-(N-((2-fluoro-6-methylbenzoyl)oxy) formamido)propyl)heptanamido)methyl)carbamoyl)furan-2-yl)benzamido) succinic acid] | convert to a BMP1, TLL1 and/or TLL2 inhibitor within 24 hours
CCCCC[C@@H](C(=O)NCNC(=O)c1ccc(-c2ccc(C(=O)N[C@@H](CC(=O)O)C(=O)O)c(OCC(=O)O)c2)o1)[C@@H](CC)N(C=O)OC(=O)C(CC)CC [Example 24, (S)-2-(2-(carboxymethoxy)-4-(5-((((R)-2-((R)-1-(N-((2-ethylbutanoyl)oxy) formamido)propyl)heptanamido)methyl)carbamoyl)furan-2-yl)benzamido) succinic acid] | convert to a BMP1, TLL1 and/or TLL2 inhibitor within 24 hours
CCCCC[C@@H](C(=O)NCNC(=O)c1ccc(-c2ccc(C(=O)N[C@@H](CC(=O)O)C(=O)O)c(OCC)c2)o1)[C@@H](CC)N(C=O)OC(=O)c1ccc(-n2cnnc2)cc1 [Example 127, (S)-2-(4-(5-((((R)-2-((R)-1-(N-((4-(4H-1,2,4-triazol-4-yl)benzoyl)oxy) formamido)propyl)heptanamido)methyl)carbamoyl)furan-2-yl)-2-ethoxybenzamido) succinic acid] | convert to a BMP1, TLL1 and/or TLL2 inhibitor within 24 hours
CCCCC[C@@H](C(=O)NCNC(=O)c1ccc(-c2ccc(C(=O)N[C@@H](CC(=O)O)C(=O)O)c(OCC)c2)o1)[C@@H](CC)N(C=O)OC(=O)c1ccc(CN2CCOCC2)cc1 [Example 70, (S)-2-(2-ethoxy-4-(5-((((R)-2-((R)-1-(N-((4-(morpholinomethyl)benzoyl)oxy) formamido)propyl)heptanamido)methyl)carbamoyl)furan-2-yl)benzamido) succinic acid] | convert to a BMP1, TLL1 and/or TLL2 inhibitor within 24 hours
CCCCC[C@@H](C(=O)NCNC(=O)c1ccc(-c2ccc(C(=O)OCC(=O)N(C)C)cc2)o1)[C@@H](CC)N(O)C=O [Example 105, 2-(dimethylamino)-2-oxoethyl 4-(5-((((R)-2-((R)-1-(N-hydroxyformamido)propyl)heptanamido)methyl)carbamoyl)furan-2-yl)benzoate] | convert to a BMP1, TLL1 and/or TLL2 inhibitor within 24 hours
CCCCC[C@@H](C(=O)NCNC(=O)c1ccc(-c2cc(OCC)cc(P(=O)(O)O)c2)o1)[C@@H](CC)N(C=O)OC(=O)c1ccc(N2CCCC2=O)cc1 [Example 59, (3-ethoxy-5-(5-((((R)-2-((R)-1-(N-((4-(2-oxopyrrolidin-1-yl)benzoyl)oxy) formamido)propyl)heptanamido)methyl)carbamoyl)furan-2-yl)phenyl)phosphonic acid, 2Ammonia salt] | convert to a BMP1, TLL1 and/or TLL2 inhibitor within 24 hours
CCCCC[C@@H](C(=O)NCNC(=O)c1ccc(-c2ccc(C(=O)N[C@@H](CC(=O)O)C(=O)O)c(OCC)c2)o1)[C@@H](CC)N(C=O)OC(=O)c1ccc(OC)cc1C(F)(F)F [Example 123, (S)-2-(2-ethoxy-4-(5-((((R)-2-((R)-1-(N-((4-methoxy-2-(trifluoromethyl)benzoyl)oxy) formamido)propyl)heptanamido)methyl)carbamoyl)furan-2-yl)benzamido) succinic acid] | convert to a BMP1, TLL1 and/or TLL2 inhibitor within 24 hours
CCCCC[C@@H](C(=O)NCNC(=O)c1ccc(-c2cc(OCC)cc(P(=O)(O)O)c2)o1)[C@@H](CC)N(C=O)OCOP(=O)(O)O [Example 10, (3-ethoxy-5-(5-((((R)-2-((R)-1-(N-((phosphonooxy)methoxy)formamido)propyl)heptanamido)methyl)carbamoyl)furan-2-yl)phenyl) phosphonic acid] | convert to a BMP1, TLL1 and/or TLL2 inhibitor within 24 hours
CCCCC[C@@H](C(=O)NCNC(=O)c1ccc(-c2ccc(C(=O)N[C@@H](CC(=O)O)C(=O)O)c(OCC)c2)o1)[C@@H](CC)N(C=O)OC(=O)c1ccc(CN2CCOCC2)cc1C [Example 71, (S)-2-(2-ethoxy-4-(5-((((R)-2-((R)-1-(N-((2-methyl-4-(morpholinomethyl)benzoyl)oxy) formamido)propyl)heptanamido)methyl)carbamoyl)furan-2-yl)benzamido) succinic acid] | convert to a BMP1, TLL1 and/or TLL2 inhibitor within 24 hours
CCCCC[C@@H](C(=O)NCNC(=O)c1ccc(-c2cc(OCC)cc(P(=O)(O)O)c2)o1)[C@@H](CC)N(C=O)OC(=O)c1ccc(N2CCCC2)cc1 [Example 50, (3-ethoxy-5-(5-((((R)-2-((R)-1-(N-((4-(pyrrolidin-1-yl)benzoyl)oxy) formamido)propyl)heptanamido)methyl)carbamoyl)furan-2-yl)phenyl)phosphonic acid, 2Ammonia salt] | convert to a BMP1, TLL1 and/or TLL2 inhibitor within 24 hours
CCCCC[C@@H](C(=O)NCNC(=O)c1ccc(-c2ccc(C(=O)N[C@@H](CC(=O)O)C(=O)O)c(OCC)c2)o1)[C@@H](CC)N(C=O)OC(=O)c1ccc2c(c1)N(C)CCO2 [Example 85, (S)-2-(2-ethoxy-4-(5-((((R)-2-((R)-1-(N-((4-methyl-3,4-dihydro-2H-benzo[b][1,4]oxazine-6-carbonyl)oxy) formamido)propyl)heptanamido)methyl)carbamoyl)furan-2-yl)benzamido) succinic acid, 2Ammonia salt] | convert to a BMP1, TLL1 and/or TLL2 inhibitor within 24 hours
CCCCC[C@@H](C(=O)NCNC(=O)c1ccc(-c2ccc(C(=O)NCP(=O)(O)O)c(OCC)c2)o1)[C@@H](CC)N(C=O)OC(=O)c1ccc(CN2CCOCC2)cc1C [Example 134, ((2-ethoxy-4-(5-((((R)-2-((R)-1-(N-((2-methyl-4-(morpholinomethyl)benzoyl)oxy) formamido)propyl)heptanamido)methyl)carbamoyl)furan-2-yl)benzamido)methyl) phosphonic acid, Trifluoroacetic acid salt] | convert to a BMP1, TLL1 and/or TLL2 inhibitor within 24 hours
CCCCC[C@@H](C(=O)NCNC(=O)c1ccc(-c2ccc(C(=O)N[C@@H](CC(=O)O)C(=O)O)c(OCC(=O)O)c2)o1)[C@@H](CC)N(C=O)OC(=O)c1ccc(OC)cc1 [Example 20, (S)-2-(2-(carboxymethoxy)-4-(5-((((R)-2-((R)-1-(N-((4-methoxybenzoyl)oxy) formamido)propyl)heptanamido)methyl)carbamoyl)furan-2-yl)benzamido) succinic acid] | convert to a BMP1, TLL1 and/or TLL2 inhibitor within 24 hours
CCCCC[C@@H](C(=O)NCNC(=O)c1ccc(-c2cc(OCC)cc(P(=O)(O)O)c2)o1)[C@@H](CC)N(C=O)OC(=O)NC(C)C [Example 65, (3-ethoxy-5-(5-(((4R,5R)-5-ethyl-6-formyl-10-methyl-3,8-dioxo-4-pentyl-7-oxa-2,6,9-triazaundecyl)carbamoyl)furan-2-yl)phenyl)phosphonic acid] | convert to a BMP1, TLL1 and/or TLL2 inhibitor within 24 hours
CCCCC[C@@H](C(=O)NCNC(=O)c1ccc(-c2ccc(C(=O)NCP(=O)(O)O)c(OCC)c2)o1)[C@@H](CC)N(C=O)OC(=O)c1ccccc1 [Example 125, ((4-(5-((((R)-2-((R)-1-(N-(benzoyloxy) formamido)propyl)heptanamido)methyl)carbamoyl)furan-2-yl)-2-ethoxybenzamido)methyl)phosphonic Acid] | convert to a BMP1, TLL1 and/or TLL2 inhibitor within 24 hours
CCCCC[C@@H](C(=O)NCNC(=O)c1ccc(-c2ccc(C(=O)N[C@@H](CC(=O)O)C(=O)O)c(OCC(=O)O)c2)o1)[C@@H](CC)N(C=O)OCOP(=O)(O)O [Example 11, (S)-2-(2-(carboxymethoxy)-4-(5-((((R)-2-((R)-1-(N-((phosphonooxy)methoxy)formamido)propyl)heptanamido)methyl)carbamoyl)furan-2-yl)benzamido) succinic acid] | convert to a BMP1, TLL1 and/or TLL2 inhibitor within 24 hours
